PubChem BioAssay AID652259, Drosophila RNAi Screening Center – 2013
Purpose: 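Genome-wide hunt for genes that control Wingless pathway activity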 (primary screen). System: Drosophila clone 8 imaginal disc epithelial cells. Knock-down reagent: long dsRNA against Drosophila genes. Treatment: pathway stimulated by co-transfected Wingless expression plasmid. Measured: 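Firefly luciferase from a tcf-site Wingless reporter, measured alongside co-transfected Renilla luciferase that tracks transfection; pathway stimulated by a Wingless plasmid; the firefly-to-Renilla ratio is not deposited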. Scale: firefly reporter light: higher = more Wg reporter light, before normalisation; Renilla control light: higher = more transfected or surviving cells. Active means: 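Strong candidates differ from their plate mean by at least two out of four per-plate statistical tests; weak candidates meet just one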. Meaning of the calls: active = candidate regulator (raises or lowers reporter); inactive = not a candidate.
In all, the deposit lists about 22,000 reagents; below is a random part of those that have a named target and a result. In the full data, 233 (1.1%) were called active. 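Light values are raw, unnormalised plate reads; the ratio scores behind the reporter calls were not deposited.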 A number with no mark means an inactive call. The numbers tell different reagents against one gene apart. Not given: the amount of reagent, the time to read-out, the dose of the treatment.

Silencing of Npc2e #1 came out at: firefly reporter light, replicate 1 = 20999; Renilla control light, replicate 1 = 7315. For Npc2e #2, the values are firefly reporter light, replicate 1 = 4.58e5; firefly reporter light, replicate 2 = 4.72e5; Renilla control light, replicate 1 = 1.10e5; Renilla control light, replicate 2 = 1.11e5. Depletion of CG10171 resulted in: firefly reporter light, replicate 1 = 10274; Renilla control light, replicate 1 = 3147. Datp gave firefly reporter light, replicate 1 = 22880; Renilla control light, replicate 1 = 10840. After knock-down of CG12825 the results were firefly reporter light, replicate 1 = 4226; firefly reporter light, replicate 2 = 9632; Renilla control light, replicate 1 = 373; Renilla control light, replicate 2 = 5266. Obp56h scored firefly reporter light, replicate 1 = 6515; Renilla control light, replicate 1 = 1909.

Knock-down of CG30495 gave: firefly reporter light, replicate 1 = 1675; firefly reporter light, replicate 2 = 6532; Renilla control light, replicate 1 = 672; Renilla control light, replicate 2 = 2886. CG30177 scored firefly reporter light, replicate 1 = 5.23e5; firefly reporter light, replicate 2 = 6.04e5; Renilla control light, replicate 1 = 1.97e5; Renilla control light, replicate 2 = 2.15e5. Cox11 showed firefly reporter light, replicate 1 = 5.17e5; firefly reporter light, replicate 2 = 6.10e5; Renilla control light, replicate 1 = 1.91e5; Renilla control light, replicate 2 = 61359. Against Trxr1 #1, the values are firefly reporter light, replicate 1 = 3200; firefly reporter light, replicate 2 = 6019; Renilla control light, replicate 1 = 1243; Renilla control light, replicate 2 = 2000. Trxr1 #2 gave firefly reporter light, replicate 1 = 7.20e5; firefly reporter light, replicate 2 = 6.99e5; Renilla control light, replicate 1 = 3.56e5; Renilla control light, replicate 2 = 3.45e5. After knock-down of CG31178, the screen gave firefly reporter light, replicate 1 = 38325; Renilla control light, replicate 1 = 8100.

Knock-down of Cht5 gave: firefly reporter light, replicate 1 = 11907; firefly reporter light, replicate 2 = 7.67e5; Renilla control light, replicate 1 = 4658; Renilla control light, replicate 2 = 3.88e5. Knock-down of Larp7 came out at: firefly reporter light, replicate 1 = 13718; Renilla control light, replicate 1 = 8681. For CG11248 the deposit lists firefly reporter light, replicate 1 = 5728; Renilla control light, replicate 1 = 2880. CG14007 scored firefly reporter light, replicate 1 = 1572; firefly reporter light, replicate 2 = 6618; Renilla control light, replicate 1 = 758; Renilla control light, replicate 2 = 2512. With knock-down of neo, the record shows firefly reporter light, replicate 1 = 2595; firefly reporter light, replicate 2 = 6141; Renilla control light, replicate 1 = 1222; Renilla control light, replicate 2 = 2061. ath showed firefly reporter light, replicate 1 = 2185; firefly reporter light, replicate 2 = 3894; Renilla control light, replicate 1 = 1209; Renilla control light, replicate 2 = 2025.

After knock-down of CG15120 the results were firefly reporter light, replicate 1 = 6152; Renilla control light, replicate 1 = 2017. For Fen1 the deposit lists firefly reporter light, replicate 1 = 4979; Renilla control light, replicate 1 = 3132. After knock-down of CG43125, the screen gave firefly reporter light, replicate 1 = 5624; Renilla control light, replicate 1 = 2395. Vha16-1 scored firefly reporter light, replicate 1 = 4331; firefly reporter light, replicate 2 = 10253; Renilla control light, replicate 1 = 892; Renilla control light, replicate 2 = 3248. After knock-down of Srrm234 #1, the record shows firefly reporter light, replicate 1 = 3577; Renilla control light, replicate 1 = 1296. Srrm234 #2 gave firefly reporter light, replicate 1 = 11764; Renilla control light, replicate 1 = 2806.

After knock-down of CG18748, the record shows firefly reporter light, replicate 1 = 14345; Renilla control light, replicate 1 = 4214. Against CG17472, the values are firefly reporter light, replicate 1 = 2672; firefly reporter light, replicate 2 = 8214; Renilla control light, replicate 1 = 779; Renilla control light, replicate 2 = 3632. After knock-down of CG7484, the screen gave firefly reporter light, replicate 1 = 8386; Renilla control light, replicate 1 = 3025. With knock-down of CycY, the record shows firefly reporter light, replicate 1 = 8135; Renilla control light, replicate 1 = 2531. Against SP2353 the deposit lists reporter change call, replicate 1 = Wg reporter activity raised (active); firefly reporter light, replicate 1 = 13568; Renilla control light, replicate 1 = 1202. Cox17 gave firefly reporter light, replicate 1 = 29888; Renilla control light, replicate 1 = 18677.

Against CG13601, the values are firefly reporter light, replicate 1 = 3489; firefly reporter light, replicate 2 = 6264; Renilla control light, replicate 1 = 1691; Renilla control light, replicate 2 = 2674. Depletion of Rpt6R came out at: firefly reporter light, replicate 1 = 7588; Renilla control light, replicate 1 = 3977.

Targets above whose target name begins with T or t:
Trxr1 #1 | firefly reporter light, replicate 1: 3200; firefly reporter light, replicate 2: 6019; Renilla control light, replicate 1: 1243; Renilla control light, replicate 2: 2000
Trxr1 #2 | firefly reporter light, replicate 1: 7.20e5; firefly reporter light, replicate 2: 6.99e5; Renilla control light, replicate 1: 3.56e5; Renilla control light, replicate 2: 3.45e5
